Data as given in patent US20070042437A1.
These are yes or no findings as the source states them, for the method shown. Some binding calls cover weakened binding; strength is not graded here.

By UniProt entry, the sequences of proteins in these tests, tags left out. Residues count along the entry.
UniProt P24062, residues 31-1370: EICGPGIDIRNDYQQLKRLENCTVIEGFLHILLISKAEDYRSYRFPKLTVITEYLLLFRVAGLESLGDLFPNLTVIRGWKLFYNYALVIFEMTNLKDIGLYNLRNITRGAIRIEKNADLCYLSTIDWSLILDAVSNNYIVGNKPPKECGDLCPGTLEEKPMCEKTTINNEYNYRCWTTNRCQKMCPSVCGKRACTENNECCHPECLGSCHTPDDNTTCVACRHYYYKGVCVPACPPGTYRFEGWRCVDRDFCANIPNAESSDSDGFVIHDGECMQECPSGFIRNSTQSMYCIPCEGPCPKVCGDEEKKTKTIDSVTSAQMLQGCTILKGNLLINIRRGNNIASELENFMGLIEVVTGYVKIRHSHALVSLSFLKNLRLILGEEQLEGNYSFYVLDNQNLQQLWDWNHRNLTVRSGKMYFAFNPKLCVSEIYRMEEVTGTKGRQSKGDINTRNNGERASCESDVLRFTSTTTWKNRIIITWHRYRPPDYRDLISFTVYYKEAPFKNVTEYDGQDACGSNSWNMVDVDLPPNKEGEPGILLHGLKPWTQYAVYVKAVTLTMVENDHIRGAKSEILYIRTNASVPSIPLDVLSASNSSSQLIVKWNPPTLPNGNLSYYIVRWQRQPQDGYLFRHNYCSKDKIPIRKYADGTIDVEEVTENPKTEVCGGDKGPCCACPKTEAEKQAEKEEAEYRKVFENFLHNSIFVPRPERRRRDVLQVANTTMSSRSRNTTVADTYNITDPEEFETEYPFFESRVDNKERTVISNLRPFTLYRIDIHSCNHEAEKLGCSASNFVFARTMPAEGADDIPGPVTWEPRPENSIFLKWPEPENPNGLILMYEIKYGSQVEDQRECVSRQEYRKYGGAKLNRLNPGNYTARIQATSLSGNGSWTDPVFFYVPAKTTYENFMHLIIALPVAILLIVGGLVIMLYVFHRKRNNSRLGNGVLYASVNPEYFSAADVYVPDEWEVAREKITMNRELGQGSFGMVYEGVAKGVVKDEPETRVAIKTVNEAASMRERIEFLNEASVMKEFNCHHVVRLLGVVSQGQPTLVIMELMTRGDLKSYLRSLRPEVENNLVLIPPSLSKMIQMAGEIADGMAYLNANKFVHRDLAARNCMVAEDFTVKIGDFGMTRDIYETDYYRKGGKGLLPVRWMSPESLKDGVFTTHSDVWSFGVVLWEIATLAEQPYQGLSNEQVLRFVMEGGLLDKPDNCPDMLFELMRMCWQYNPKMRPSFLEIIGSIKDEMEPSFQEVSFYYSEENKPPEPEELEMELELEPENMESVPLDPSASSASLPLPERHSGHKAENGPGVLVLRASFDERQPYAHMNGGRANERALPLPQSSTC
UniProt P11717, residues 41-2491: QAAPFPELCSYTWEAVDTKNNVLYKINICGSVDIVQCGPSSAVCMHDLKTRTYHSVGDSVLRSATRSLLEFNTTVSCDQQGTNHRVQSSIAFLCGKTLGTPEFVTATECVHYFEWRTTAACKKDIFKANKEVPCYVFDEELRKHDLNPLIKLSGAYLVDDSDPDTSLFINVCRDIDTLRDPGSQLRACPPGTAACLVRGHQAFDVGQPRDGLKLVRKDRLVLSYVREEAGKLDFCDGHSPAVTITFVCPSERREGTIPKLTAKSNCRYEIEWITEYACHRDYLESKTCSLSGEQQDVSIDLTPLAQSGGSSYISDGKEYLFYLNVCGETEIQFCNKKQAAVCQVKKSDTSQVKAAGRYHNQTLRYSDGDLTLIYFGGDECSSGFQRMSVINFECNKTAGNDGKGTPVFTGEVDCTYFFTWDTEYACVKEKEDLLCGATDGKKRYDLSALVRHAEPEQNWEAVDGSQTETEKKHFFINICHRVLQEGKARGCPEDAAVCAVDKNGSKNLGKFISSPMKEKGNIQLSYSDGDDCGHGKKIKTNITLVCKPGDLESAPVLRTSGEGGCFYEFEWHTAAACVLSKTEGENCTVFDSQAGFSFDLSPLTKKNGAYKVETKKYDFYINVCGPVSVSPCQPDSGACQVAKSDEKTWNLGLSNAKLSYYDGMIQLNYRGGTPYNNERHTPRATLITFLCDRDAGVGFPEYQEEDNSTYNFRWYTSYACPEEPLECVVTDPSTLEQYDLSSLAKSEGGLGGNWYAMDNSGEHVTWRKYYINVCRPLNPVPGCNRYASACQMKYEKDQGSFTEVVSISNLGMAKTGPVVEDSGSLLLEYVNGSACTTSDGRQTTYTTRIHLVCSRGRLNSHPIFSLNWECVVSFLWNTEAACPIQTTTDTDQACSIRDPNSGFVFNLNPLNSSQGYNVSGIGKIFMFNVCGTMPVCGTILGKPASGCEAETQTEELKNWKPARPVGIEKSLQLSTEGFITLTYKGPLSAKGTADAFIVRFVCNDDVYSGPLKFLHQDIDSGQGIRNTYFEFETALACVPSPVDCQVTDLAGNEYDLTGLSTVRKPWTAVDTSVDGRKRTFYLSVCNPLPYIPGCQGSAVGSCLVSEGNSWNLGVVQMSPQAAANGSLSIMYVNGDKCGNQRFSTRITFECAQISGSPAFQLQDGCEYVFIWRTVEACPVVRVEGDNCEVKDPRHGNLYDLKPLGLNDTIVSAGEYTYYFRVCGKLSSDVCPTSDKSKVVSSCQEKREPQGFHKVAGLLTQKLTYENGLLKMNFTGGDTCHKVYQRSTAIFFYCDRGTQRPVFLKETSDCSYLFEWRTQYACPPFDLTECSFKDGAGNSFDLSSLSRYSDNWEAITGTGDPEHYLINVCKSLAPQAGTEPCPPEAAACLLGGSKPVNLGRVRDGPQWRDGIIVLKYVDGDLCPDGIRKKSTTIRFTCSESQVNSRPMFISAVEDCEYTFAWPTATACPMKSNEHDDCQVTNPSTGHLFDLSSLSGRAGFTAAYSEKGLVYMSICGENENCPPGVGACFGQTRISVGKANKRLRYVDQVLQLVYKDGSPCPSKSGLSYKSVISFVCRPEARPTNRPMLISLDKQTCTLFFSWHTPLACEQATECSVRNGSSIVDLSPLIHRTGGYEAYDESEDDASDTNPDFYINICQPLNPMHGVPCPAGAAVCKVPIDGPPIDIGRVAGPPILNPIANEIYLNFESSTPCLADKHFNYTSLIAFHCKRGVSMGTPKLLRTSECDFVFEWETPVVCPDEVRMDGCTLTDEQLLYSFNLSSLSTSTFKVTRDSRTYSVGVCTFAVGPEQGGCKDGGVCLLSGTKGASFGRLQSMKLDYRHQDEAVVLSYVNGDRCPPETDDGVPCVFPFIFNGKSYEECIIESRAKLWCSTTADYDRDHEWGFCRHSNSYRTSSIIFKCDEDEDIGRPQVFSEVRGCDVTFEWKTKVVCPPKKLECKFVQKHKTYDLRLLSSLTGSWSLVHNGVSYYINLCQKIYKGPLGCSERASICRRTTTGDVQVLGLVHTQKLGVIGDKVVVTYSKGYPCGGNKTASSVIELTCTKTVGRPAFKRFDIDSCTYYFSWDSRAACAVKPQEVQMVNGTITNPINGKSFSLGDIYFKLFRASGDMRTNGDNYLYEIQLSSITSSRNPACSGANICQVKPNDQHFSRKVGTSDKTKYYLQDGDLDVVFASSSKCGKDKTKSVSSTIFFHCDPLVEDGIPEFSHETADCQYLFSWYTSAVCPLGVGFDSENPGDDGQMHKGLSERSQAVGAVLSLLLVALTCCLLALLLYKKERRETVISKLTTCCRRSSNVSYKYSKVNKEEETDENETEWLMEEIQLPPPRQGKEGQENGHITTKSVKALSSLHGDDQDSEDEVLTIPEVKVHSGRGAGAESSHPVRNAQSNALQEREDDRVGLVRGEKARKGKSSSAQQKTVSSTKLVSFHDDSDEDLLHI
UniProt P05019, residues 49-118: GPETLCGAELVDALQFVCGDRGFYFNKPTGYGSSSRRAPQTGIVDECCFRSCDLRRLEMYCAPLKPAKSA
UniProt P01344, residues 25-91: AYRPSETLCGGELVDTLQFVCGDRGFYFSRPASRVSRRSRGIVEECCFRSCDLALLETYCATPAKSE

How the values were obtained:
[1] = target: IGF-I receptor (rat brain membrane extracts) (rat) (UniProt P24062); assay: competitive equilibrium binding, [125I]-IGF-I, rat temporal lobe membrane extracts
[2] = target: IGF-I receptor (rat brain membrane extracts) (rat) (UniProt P24062); assay: equilibrium binding, 50 pM [125I]-IGF-I, rat brain membrane extracts
[3] = target: IGF-I receptor (rat brain membrane extracts) (rat) (UniProt P24062); assay: equilibrium binding, rat temporal lobe membrane extracts (FIG. 20B)
[4] = target: IGF-I receptor (rat brain membrane extracts) (rat) (UniProt P24062); assay: saturation binding, 0.5-500 pM tracer, rat brain membrane protein extracts (FIG. 30)
[5] = target: IGF-I receptor (rat brain membrane extracts) (rat) (UniProt P24062); assay: competitive saturation binding, rat brain membrane extracts
[6] = target: IGF-I receptor (rat brain membrane extracts) (rat) (UniProt P24062); assay: equilibrium binding, 50 pM tracer, rat brain membrane proteins (FIGS. 29D-29F)
[7] = target: IGF-II receptor (rat brain membrane extracts) (rat); assay: competitive equilibrium binding, [125I]-IGF-II, rat temporal lobe membrane extracts
[8] = target: IGF-II receptor (human brain, postmortem frontal lobe membrane extracts) (human) (UniProt P11717); assay: saturation binding, human frontal lobe membrane extracts (FIGS. 13I-13L)
[9] = target: IGF-II receptor (human brain, postmortem frontal lobe membrane extracts) (human) (UniProt P11717); assay: equilibrium binding, 50 pM [125I]-IGF-II, human frontal lobe membrane extracts
[10] = target: IGF-II receptor (rat brain membrane extracts) (rat); assay: equilibrium binding, rat temporal lobe membrane extracts (FIG. 20C)
[11] = target: IGF-II receptor (human brain, postmortem frontal lobe membrane extracts) (human) (UniProt P11717); assay: equilibrium binding, human frontal lobe membrane extracts (FIG. 12C)
[12] = target: IGF-II receptor (human brain, postmortem frontal lobe membrane extracts) (human) (UniProt P11717); assay: saturation binding, human frontal lobe membrane extracts
[13] = target: IGF-II receptor (rat brain membrane extracts) (rat); assay: equilibrium binding, 50 pM tracer, rat brain membrane proteins (FIGS. 29G-29I)
[14] = target: IGF-II receptor (rat brain membrane extracts) (rat); assay: saturation binding, 0.5-500 pM tracer, rat brain membrane protein extracts (FIG. 30)
[15] = target: IGF-II receptor (rat brain membrane extracts) (rat); assay: competitive saturation binding, rat brain membrane extracts
[16] = target: IGF-II receptor (rat brain membrane extracts) (rat); assay: equilibrium binding, 50 pM [125I]-IGF-II, rat brain membrane extracts
[17] = target: IGF-II receptor (human brain, postmortem frontal lobe membrane extracts) (human) (UniProt P11717); assay: saturation binding / Scatchard analysis, human frontal lobe membrane extracts

Measured: binding

Human recombinant [125I] IGF-I (from UniProt P05019 49-118) (ligand)
binds: [1] | [2] | [3] | [4] | [5] | [6]

Human recombinant [125I] IGF-II (from UniProt P01344 25-91) (ligand)
not listed: [1] | [2] | [3] | [4] | [5] | [6]
binds: all other assays above
